Assay results as given in patent publication US20230010108 (published 2023).

Assay: general procedure: solution-phase peptide synthesis; perfluorophenyl ester, DIPEA
Conditions: for conjugation yield: conjugation step

Q: Which step yield (late stage modification step, hydrochloride salt) does the source give for “(4R)-4-(2-((3S,6S,9R,11R)-6-((S)-sec-butyl)-3,9-diisopropyl-8-methyl-4,7,13-trioxo-12-oxa-2,5,8-triazatetradecan-11-yl)thiazole-4-carboxamido)-2-methyl-5-phenylpentanoic Acid Hydrochloride Salt” here?
A: Its step yield is 103%.

Q: Which step yield (late stage modification step) does the source give for “(2S)-2-((2R,3R)-3-((2S)-1-((11S,14S,17S)-1-amino-17-((R)-sec-butyl)-11,14-diisopropyl-18-methoxy-10,16-dimethyl-9,12,15-trioxo-3,6-dioxa-10,13,16-triazaicosan-20-oyl)pyrrolidin-2-yl)-3-methoxy-2-methylpropanamido)-3-phenylpropanoic Acid” here?
A: The step yield was 92%.

Q: For “(S)-methyl 2-((2R,3R)-3-((S)-1-((3R,4S,5S)-4-((S)-2-((S)-2-((S)-2-amino-N-methylpropanamido)-3-methylbutanamido)-N,3-dimethylbutanamido)-3-methoxy-5-methylheptanoyl)pyrrolidin-2-yl)-3-methoxy-2-methylpropanamido)-3-phenylpropanoate”, which step yield (late stage modification step) is on record?
A: The step yield was 96%.

Q: For “(S)-2-((2R,3R)-3-((S)-1-((6S,9S,12S,13R)-12-((S)-sec-butyl)-6,9-diisopropyl-13-methoxy-2,2,5,11-tetramethyl-4,7,10-trioxo-3-oxa-5,8,11-triazapenta-decan-15-oyl)pyrrolidin-2-yl)-3-methoxy-2-methylpropanamido)-3-phenylpropanoic Acid”, which step yield (late stage modification step) is on record?
A: The step yield was 85%.

Q: Which step yield (coupling step) does the source give for “(S)-methyl 2-((2R,3R)-3-((S)-1-((6S,9S,12S,13R)-12-((S)-sec-butyl)-6,9-diisopropyl-13-methoxy-2,2,5,11-tetramethyl-4,7,10-trioxo-3-oxa-5,8,11-triazapentadecan-15-oyl)pyrrolidin-2-yl)-3-methoxy-2-methylpropanamido)-3-phenylpropanoate” here?
A: Its step yield is 39%.

Q: Which conjugation yield does the source give for “(4R)-4-(2-((1R,3R)-1-acetoxy-3-((2S,3S)—N,3-dimethyl-2-((R)-1-methylpiperidine-2-carboxamido)pentanamido)-4-methylpentyl)thiazole-4-carboxamido)-5-(3-(3-(2-(2-azidoethoxy)ethoxy)propanamido)-4-hydroxyphenyl)-2-methylpentanoic acid” here?
A: The conjugation yield was 82%.

Q: With “(S,S,R,R,2S,2′S,4R,4′R)-5,5′-((((7S,15R,16S,24S)-15,16-bis(3-(2,5-dioxo-2,5-dihydro-1H-pyrrol-1-yl)propanamido)-6,9,14,17,22,25-hexaoxo-7,24-bis(30-oxo-2,5,9,12,15,18,21,24,27-nonaoxa-31-azapentatriacontan-35-yl)-5,8,13,18,23,26-hexaazatriacontane-1,30-dioyl)bis(azanediyl))bis(4-hydroxy-3,1-phenylene))bis(4-(2-((6S,9R,11R)-6-((S)-sec-butyl)-9-isopropyl-2,3,3,8-tetramethyl-4,7,13-trioxo-12-oxa-2,5,8-triazatetradecan-11-yl)thiazole-4-carboxamido)-2-methylpentanoic acid)” as the substance, how does the step yield (coupling step) read?
A: The step yield was 48% yield.

Q: With “(4R)-4-(2-((1R,3R)-1-acetoxy-3-((2S,3S)—N,3-dimethyl-2-((R)-1-methyl-piperidine-2-carboxamido)pentanamido)-4-methylpentyl)thiazole-4-carboxamido)-5-(3-(3-(2-(2-aminoethoxy)ethoxy)propanamido)-4-hydroxyphenyl)-2-methylpentanoic Acid” as the substance, how does the step yield (late stage modification step) read?
A: The step yield was 79%.

Q: Which step yield (late stage modification step, run 1) does the source give for “(S)-2-((2R,3R)-3-((S)-1-((3R,4S,5S)-4-((S)—N,3-dimethyl-2-((S)-3-methyl-2-(methylamino)butanamido)butanamido)-3-methoxy-5-methylheptanoyl)-pyrrolidin-2-yl)-3-methoxy-2-methylpropanamido)-3-phenylpropanoic Acid” here?
A: Its step yield is “˜100%”.

Q: What about the step yield (late stage modification step, run 2) of the same substance?
A: Its step yield is 90%.

Q: With “(2S)-2-((2R,3R)-3-((2S)-1-((11S,14S,17S)-1-azido-17-((R)-sec-butyl)-11,14-diisopropyl-18-methoxy-10,16-dimethyl-9,12,15-trioxo-3,6-dioxa-10,13,16-triazaicosan-20-oyl)pyrrolidin-2-yl)-3-methoxy-2-methylpropanamido)-3-phenylpropanoic Acid” as the substance, how does the conjugation yield read?
A: The conjugation yield was 82%.

Q: With “(2R,3R)-methyl 3-((S)-1-((3R,4S,5S)-4-((S)-2-(2-(dimethylamino)-2-methylpropanamido)-N,3-dimethylbutanamido)-3-methoxy-5-methylheptanoyl)pyrrolidin-2-yl)-3-methoxy-2-methylpropanoate” as the substance, how does the step yield (coupling step) read?
A: The step yield was 100% yield.
